The values below come from article PMC6358605.

By UniProt entry, the sequences of proteins in these tests, tags left out. Residues count along the entry.
UniProt G3I8R9, residues 28-413: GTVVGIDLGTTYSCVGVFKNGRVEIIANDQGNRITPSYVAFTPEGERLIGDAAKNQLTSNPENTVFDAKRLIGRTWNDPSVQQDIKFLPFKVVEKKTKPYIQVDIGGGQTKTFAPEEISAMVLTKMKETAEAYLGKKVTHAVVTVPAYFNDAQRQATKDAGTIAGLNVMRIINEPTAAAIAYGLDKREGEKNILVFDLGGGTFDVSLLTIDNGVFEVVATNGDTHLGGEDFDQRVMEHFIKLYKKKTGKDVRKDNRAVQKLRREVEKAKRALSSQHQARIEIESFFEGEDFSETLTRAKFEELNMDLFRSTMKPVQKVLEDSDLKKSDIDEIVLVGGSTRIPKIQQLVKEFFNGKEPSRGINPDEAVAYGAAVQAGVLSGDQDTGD

The assay deals with T1, biotinylated AviTag-SAPLIP^22–123 (mouse) (UniProt Q9CXI5).
T1 sequence (chain, biotin (on the AviTag, by E. coli BirA)): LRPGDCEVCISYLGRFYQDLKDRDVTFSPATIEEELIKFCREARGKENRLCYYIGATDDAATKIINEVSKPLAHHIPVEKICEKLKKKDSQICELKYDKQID
The experiment in a line: BLI; sequential dipping: streptavidin biosensors loaded with biotinylated MANF, SAP or SAPLIP, dipped in BiP SBD, buffer, BiP NBD with 2 mM ATP, 2 mM ATP, BiP NBD with 2 mM ADP, 2 mM ADP; HKMT buffer; both purified. In general terms: BLI is a label-free optical method that tracks binding on a fibre tip over time.

Results are given in words; binding and its absence hold for the method and conditions named. Tags and fused reporters may be left off the sequences shown.

As for “BiP NBD (28–413) (from UniProt G3I8R9 28-413) (domain or fragment)”, the binding entry is given as “no binding”.
